# From PMC8384837
# Residue numbers refer to the chain shown, from its start. The list shows a part of the results. For some of these results: At the low end of the ranking, values are background and their order means little.
# Legend:
# Conditions in all cases: yeast three-hybrid, YBZ-1, SC-Leu-His + 0.5 mM 3-AT, 4 days
# [1] = molecular target: T1, PUM1 PUF domain R3-GRG C935G + Q939G (UniProt Q14671)
# T1 sequence: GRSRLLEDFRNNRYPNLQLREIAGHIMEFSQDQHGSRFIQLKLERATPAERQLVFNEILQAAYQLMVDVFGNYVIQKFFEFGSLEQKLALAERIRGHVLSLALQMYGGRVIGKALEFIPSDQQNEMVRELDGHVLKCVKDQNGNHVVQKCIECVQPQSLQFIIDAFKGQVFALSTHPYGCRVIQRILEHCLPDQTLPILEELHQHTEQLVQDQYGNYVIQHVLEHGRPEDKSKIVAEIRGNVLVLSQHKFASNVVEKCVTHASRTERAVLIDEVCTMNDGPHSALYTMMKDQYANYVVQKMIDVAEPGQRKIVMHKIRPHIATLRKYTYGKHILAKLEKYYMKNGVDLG
# [2] = molecular target: T2, PUM1 PUF domain R3-GRH C935G + Q939H (UniProt Q14671)
# T2 sequence: T1 sequence with G112H
# [3] = molecular target: T3, PUM1 PUF domain R3-GRL C935G + Q939L (UniProt Q14671)
# T3 sequence: T1 sequence with G112L
# [4] = molecular target: T4, PUM1 PUF domain R3-GRP C935G + Q939P (UniProt Q14671)
# T4 sequence: T1 sequence with G112P
# [5] = molecular target: T5, PUM1 PUF domain R3-GRR C935G + Q939R (Homo sapiens) (UniProt Q14671)
# T5 sequence: T1 sequence with G112R
# [6] = molecular target: T6, PUM1 PUF domain R3-GRS C935G + Q939S (UniProt Q14671)
# T6 sequence: T1 sequence with G112S
# [7] = molecular target: T7, PUM1 PUF domain R3-GRT C935G + Q939T (UniProt Q14671)
# T7 sequence: T1 sequence with G112T
# [8] = molecular target: T8, PUM1 PUF domain R3-GRV C935G + Q939V (UniProt Q14671)
# T8 sequence: T1 sequence with G112V
# [9] = molecular target: T9, PUM1 PUF domain R3-GRW C935G + Q939W (UniProt Q14671)
# T9 sequence: T1 sequence with G112W
# [10] = molecular target: T10, PUM1 PUF domain R3-GRY C935G + Q939Y (UniProt Q14671)
# T10 sequence: T1 sequence with G112Y
# [11] = molecular target: T11, PUM1 PUF domain R3-GVE C935G + R936V + Q939E (UniProt Q14671)
# T11 sequence: T1 sequence with R109V, G112E
# [12] = molecular target: T12, PUM1 PUF domain R3-GWA C935G + R936W + Q939A (UniProt Q14671)
# T12 sequence: T1 sequence with R109W, G112A
# [13] = molecular target: T13, PUM1 PUF domain R3-GWD C935G + R936W + Q939D (UniProt Q14671)
# T13 sequence: T1 sequence with R109W, G112D
# [14] = molecular target: T14, PUM1 PUF domain R3-GWG C935G + R936W + Q939G (UniProt Q14671)
# T14 sequence: T1 sequence with R109W
# [15] = molecular target: T15, PUM1 PUF domain R3-GWI C935G + R936W + Q939I (UniProt Q14671)
# T15 sequence: T1 sequence with R109W, G112I
# [16] = molecular target: T16, PUM1 PUF domain R3-GWP C935G + R936W + Q939P (UniProt Q14671)
# T16 sequence: T1 sequence with R109W, G112P
# [17] = molecular target: T17, PUM1 PUF domain R3-IFR C935I + R936F + Q939R (Homo sapiens) (UniProt Q14671)
# T17 sequence: T1 sequence with G108I, R109F, G112R
# [18] = molecular target: T18, PUM1 PUF domain R3-IRG C935I + Q939G (UniProt Q14671)
# T18 sequence: T1 sequence with G108I
# [19] = molecular target: T19, PUM1 PUF domain R3-IRV C935I + Q939V (UniProt Q14671)
# T19 sequence: T1 sequence with G108I, G112V
# [20] = molecular target: T20, PUM1 PUF domain R3-IWR C935I + R936W + Q939R (Homo sapiens) (UniProt Q14671)
# T20 sequence: T1 sequence with G108I, R109W, G112R
# [21] = molecular target: T21, PUM1 PUF domain R3-IYR C935I + R936Y + Q939R (Homo sapiens) (UniProt Q14671)
# T21 sequence: T1 sequence with G108I, R109Y, G112R
# [22] = molecular target: T22, PUM1 PUF domain R3-IYV C935I + R936Y + Q939V (UniProt Q14671)
# T22 sequence: T1 sequence with G108I, R109Y, G112V
# [23] = molecular target: T23, PUM1 PUF domain R3-KPG C935K + R936P + Q939G (UniProt Q14671)
# T23 sequence: T1 sequence with G108K, R109P
# [24] = molecular target: T24, PUM1 PUF domain R3-KSD C935K + R936S + Q939D (UniProt Q14671)
# T24 sequence: T1 sequence with G108K, R109S, G112D
# [25] = molecular target: T25, PUM1 PUF domain R3-KSG C935K + R936S + Q939G (UniProt Q14671)
# T25 sequence: T1 sequence with G108K, R109S
# [26] = molecular target: T26, PUM1 PUF domain R3-KSS C935K + R936S + Q939S (UniProt Q14671)
# T26 sequence: T1 sequence with G108K, R109S, G112S
# [27] = molecular target: T27, PUM1 PUF domain R3-LFG C935L + R936F + Q939G (Homo sapiens) (UniProt Q14671)
# T27 sequence: T1 sequence with G108L, R109F
# [28] = molecular target: T28, PUM1 PUF domain R3-LFL C935L + R936F + Q939L (UniProt Q14671)
# T28 sequence: T1 sequence with G108L, R109F, G112L
# [29] = molecular target: T29, PUM1 PUF domain R3-LFT C935L + R936F + Q939T (Homo sapiens) (UniProt Q14671)
# T29 sequence: T1 sequence with G108L, R109F, G112T
# [30] = molecular target: T30, PUM1 PUF domain R3-LNG C935L + R936N + Q939G (UniProt Q14671)
# T30 sequence: T1 sequence with G108L, R109N
# [31] = molecular target: T31, PUM1 PUF domain R3-LNS C935L + R936N + Q939S (UniProt Q14671)
# T31 sequence: T1 sequence with G108L, R109N, G112S
# [32] = molecular target: T32, PUM1 PUF domain R3-LRA C935L + Q939A (UniProt Q14671)
# T32 sequence: T1 sequence with G108L, G112A
# [33] = molecular target: T33, PUM1 PUF domain R3-LRC C935L + Q939C (UniProt Q14671)
# T33 sequence: T1 sequence with G108L, G112C
# [34] = molecular target: T34, PUM1 PUF domain R3-LRE C935L + Q939E (UniProt Q14671)
# T34 sequence: T1 sequence with G108L, G112E
# [35] = molecular target: T35, PUM1 PUF domain R3-LRG C935L + Q939G (Homo sapiens) (UniProt Q14671)
# T35 sequence: T1 sequence with G108L
# [36] = molecular target: T36, PUM1 PUF domain R3-LRR C935L + Q939R (UniProt Q14671)
# T36 sequence: T1 sequence with G108L, G112R
# [37] = molecular target: T37, PUM1 PUF domain R3-LRS C935L + Q939S (UniProt Q14671)
# T37 sequence: T1 sequence with G108L, G112S
# [38] = molecular target: T38, PUM1 PUF domain R3-LRT C935L + Q939T (Homo sapiens) (UniProt Q14671)
# T38 sequence: T1 sequence with G108L, G112T
# [39] = molecular target: T39, PUM1 PUF domain R3-LRV C935L + Q939V (UniProt Q14671)
# T39 sequence: T1 sequence with G108L, G112V
# [40] = molecular target: T40, PUM1 PUF domain R3-LSA C935L + R936S + Q939A (UniProt Q14671)
# T40 sequence: T1 sequence with G108L, R109S, G112A
sequence,measurement,setting,value
GGCUAGAACUAGUGGAUCCCCCGGCGCCCGGCGGCUCGAGCCCGGGUAAGUGUAACUAGUCUGCAUGCCGCCGGGCGCCAUGCCUGCAGGUCGACUCUAGAAAACAUG,binding signal (log2 enrichment (interaction score)),[1],-3.16
same,binding signal (log2 enrichment (interaction score)),[2],< -6.92
same,binding signal (log2 enrichment (interaction score)),[3],-4.46
same,binding signal (log2 enrichment (interaction score)),[4],-4.42
same,binding signal (log2 enrichment (interaction score)),[5],-0.41
same,binding signal (log2 enrichment (interaction score)),[6],-3.65
same,binding signal (log2 enrichment (interaction score)),[7],-2.5
same,binding signal (log2 enrichment (interaction score)),[8],-3.88
same,binding signal (log2 enrichment (interaction score)),[9],-3.97
same,binding signal (log2 enrichment (interaction score)),[10],-3.31
same,binding signal (log2 enrichment (interaction score)),[11],-4.97
same,binding signal (log2 enrichment (interaction score)),[12],< -7.82
same,binding signal (log2 enrichment (interaction score)),[13],-6.81
same,binding signal (log2 enrichment (interaction score)),[14],-4.62
same,binding signal (log2 enrichment (interaction score)),[15],-6.86
same,binding signal (log2 enrichment (interaction score)),[16],-3.44
same,binding signal (log2 enrichment (interaction score)),[17],0.03
same,binding signal (log2 enrichment (interaction score)),[18],< -8.43
same,binding signal (log2 enrichment (interaction score)),[19],< -8.5
same,binding signal (log2 enrichment (interaction score)),[20],-0.4
same,binding signal (log2 enrichment (interaction score)),[21],-2.27
same,binding signal (log2 enrichment (interaction score)),[22],< -7.31
same,binding signal (log2 enrichment (interaction score)),[23],< -7.81
same,binding signal (log2 enrichment (interaction score)),[24],< -6.4
same,binding signal (log2 enrichment (interaction score)),[25],-4.91
same,binding signal (log2 enrichment (interaction score)),[26],< -8.01
same,binding signal (log2 enrichment (interaction score)),[27],-2.98
same,binding signal (log2 enrichment (interaction score)),[28],-4.94
same,binding signal (log2 enrichment (interaction score)),[29],-3.27
same,binding signal (log2 enrichment (interaction score)),[30],< -8.26
same,binding signal (log2 enrichment (interaction score)),[31],< -8.09
same,binding signal (log2 enrichment (interaction score)),[32],-4.38
same,binding signal (log2 enrichment (interaction score)),[33],-4.79
same,binding signal (log2 enrichment (interaction score)),[34],< -9.8
same,binding signal (log2 enrichment (interaction score)),[35],-3.49
same,binding signal (log2 enrichment (interaction score)),[36],-3.98
same,binding signal (log2 enrichment (interaction score)),[37],< -9.32
same,binding signal (log2 enrichment (interaction score)),[38],-1.51
same,binding signal (log2 enrichment (interaction score)),[39],-3.82
same,binding signal (log2 enrichment (interaction score)),[40],< -9.69

# Some of the entries so far, bar-delimited.
sequence | measurement | setting | value
GGCUAGAACUAGUGGAUCCCCCGGCGCCCGGCGGCUCGAGCCCGGGUAAGUGUAACUAGUCUGCAUGCCGCCGGGCGCCAUGCCUGCAGGUCGACUCUAGAAAACAUG | binding signal (log2 enrichment (interaction score)) | [6] | -3.65
same | binding signal (log2 enrichment (interaction score)) | [36] | -3.98
